Data from PubChem BioAssay AID624291 (National Center for Advancing Translational Sciences (NCATS), 2012).
The whole screen tested about 350,000 compounds, of which about 220 (0.063%) were called active. The inconclusive results got no clear call from the source; some entries with a clear call stand among them for comparison. Calls come from the whole dose curve; as a rule, active = well fitted activation curve with a large enough effect; inconclusive = small, poorly fitted or top-dose-only effect; inactive = no such curve, though single readings can be large or run the other way. Where the call is inconclusive, the potency comes from a doubtful curve fit.

assay: qHTS for Activators of Integrin-Mediated Alleviation for Muscular Dystrophy; settings: alpha7betagal myoblasts, beta-gal FDG fluorescence, 48 h; activation: at 38.3 µM (top of the series); note: nearly all actives have a fitted effect of over 60% in size;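 for activation: 100% = response of the positive control SU9516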
How it was run: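 alpha7betagal+/- myoblasts (passage 13, 250/well) treated 48 h at 37C with compounds at 1:260 dilution of DMSO stock. Lysed, then beta-galactosidase activity read as FDG fluorescence (ex 480/em 540) after 30 min, with pre-read for autofluorescence.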
Potency is the fitted concentration of half-maximal effect.

| Compound | Potency | activation |
| --- | --- | --- |
| O=C(CCc1nnc2ccc(NCc3ccco3)nn12)Nc1ccc(F)cc1F | inactive |  |
| CC1CN(C(=O)COC(=O)c2ccc3ncsc3c2)CC(C)O1 (configuration not stated) | inconclusive: 28.2 µM [activator, single point] |  |
| COc1cc(/C=N/NC(=O)C(=O)NCc2ccco2)ccc1O | inconclusive: 5.01 µM [activator, partial curve, poor fit] |  |
| CC(Sc1nncn1C)C(=O)Nc1ccc2ccccc2c1 (configuration not stated) | inconclusive: 11.2 µM [activator, partial curve, poor fit] |  |
| COc1ccccc1CNC(=O)CCC(=O)Nc1nnc(C(C)C)s1 | inconclusive: 0.501 µM [activator, full curve, poor fit] |  |
| CCN(CC)c1cc(-c2ccccc2)ncn1 | inconclusive: 1 µM [activator, full curve, poor fit] |  |
| COC(=O)c1[nH]c2cccc(OC)c2c1NC(=O)CN1CCN(c2cccc(OC)c2)C(C)C1 (configuration not stated) |  | inconclusive: -19.9% [activator] |
| O=C(NN1CCOCC1)c1ccc([N+](=O)[O-])cc1 | inconclusive: 11.2 µM [activator, single point] |  |
| O=C(C1CC1)N1CCN=C1SCc1ccccc1Cl | inactive |  |
| COc1ccccc1N(C(=O)CNC(=O)c1ccco1)C(C(=O)NC1CCCCC1)c1ccncc1 (configuration not stated) | inconclusive: 4.47 µM [activator, full curve] |  |
| CC(Oc1ccccc1Cl)C(=O)N(Cc1ccco1)C1CCS(=O)(=O)C1 (configuration not stated) | inconclusive: 12.6 µM [activator, single point] |  |
| NS(=O)(=O)c1ccc(-c2ccc(C=C3C(=O)c4ccccc4C3=O)o2)cc1 | inactive |  |
| Cc1ccc(C23CC4CC(CC(C(=O)N(C)C)(C4)C2)C3)cc1 | inconclusive: 35.5 µM [activator, partial curve, poor fit] |  |
| Cc1cc(C)n(C(=O)CN(C)S(=O)(=O)c2ccc([N+](=O)[O-])cc2)n1 | inconclusive: 28.2 µM [activator, single point] |  |
| CCN(CC)S(=O)(=O)c1ccc2oc(Nc3ccc(OC)cc3OC)nc2c1 | inconclusive: 7.08 µM [activator, partial curve, poor fit] |  |
| Cc1c(C(=O)N/N=C/c2cccs2)nnn1-c1nonc1N | inconclusive: 11.2 µM [activator, partial curve, poor fit] |  |
| O=C(CN1C(=O)c2ccccc2S1(=O)=O)NCCSCc1c(F)cccc1Cl | inconclusive: 28.2 µM [activator, single point] |  |
| CCCCCC1CC(CC/C(C)=N/NC(N)=O)C(=O)O1 (configuration not stated) | inconclusive: 2.51 µM [activator, partial curve, poor fit] |  |
| COc1ccccc1CN1CC(C(=O)N(C)Cc2ccc(C)o2)CCC1=O (configuration not stated) | inactive |  |
| Cc1cc(=S)[nH]c(=S)[nH]1 | inconclusive: 2 µM [activator, partial curve, poor fit] |  |
| Cc1ccc(SCC(=O)NC(=O)c2ccc(S(=O)(=O)N(C)C)cc2)cc1C | inconclusive: 3.55 µM [activator, single point] |  |
| O=c1oc2ccccc2n1CCc1ccccc1 | inactive |  |
| Cn1c(CNC(=O)CNC(=O)c2cccc(F)c2)cc(=O)n(C)c1=O | inconclusive: 5.01 µM [activator, single point] |  |

| Compound | Potency | activation |
| --- | --- | --- |
| CC(C)(C)NC(=O)N1CCN(c2nc3ccc(Cl)cc3s2)CC1 | inactive |  |
| CC(C)c1ccc(/C=C/c2[nH]c(=O)[nH]c(=O)c2[N+](=O)[O-])cc1 | inactive |  |
| CCOC(=O)c1ccc(N=c2ssnc2Cl)cc1 | inactive |  |
| CCN(C(=O)CSc1nnc(C2CC2)n1-c1ccccc1)C1CCS(=O)(=O)C1 (configuration not stated) | inconclusive: 2.82 µM [activator, full curve] |  |
| Nc1nonc1-n1nnc(C(=O)N/N=C/c2ccc(OCc3ccccc3)cc2)c1CNc1ccccc1 | inconclusive: 2.51 µM [activator, partial curve, poor fit] |  |
| COc1cc([N+](=O)[O-])cc(/C=N/NC(=O)Cn2cncn2)c1O | inconclusive: 3.16 µM [activator, single point] |  |
| Cc1n[nH]c(=S)n1/N=C/c1cccc(OCc2ccccc2)c1 | inactive |  |
| NC(=O)c1c(NC(=O)C2c3ccccc3Oc3ccccc32)sc2c1CCCCC2 | inconclusive: 3.55 µM [activator, full curve, poor fit] |  |
| C#CC(C)(C)NC(=O)c1ccc(-c2ccccc2F)cc1 | inconclusive: 10 µM [activator, partial curve, poor fit] |  |
| C=CC#CC1(O)CC(C)[N+](C)(C)CC1C (configuration not stated) | inconclusive: 3.16 µM [activator, single point] |  |
| COc1ccc(S(=O)(=O)NCC2CCCN(C(=O)c3cccnc3)C2)cc1 (configuration not stated) | inconclusive: 28.2 µM [activator, single point] |  |
| COc1ccc(S(=O)(=O)N2CCOCC2)cc1NC(=O)c1cccc(Cl)c1 | inconclusive: 5.01 µM [activator, single point] |  |
| CCN(CC)CC#CCC(O)(c1ccccc1)C1CCCCC1 (configuration not stated) | inactive |  |
| CCc1ccc(NC(=O)CNC(=O)Cn2ccc3ccccc3c2=O)cc1 | inconclusive: 3.55 µM [activator, partial curve, poor fit] |  |
| CCC/C=N/NC(=O)c1ccccc1O | inconclusive: 5.62 µM [activator, partial curve, poor fit] |  |
| c1ccc(-n2nnnc2-n2cnc3ccccc32)cc1 | inconclusive: 28.2 µM [activator, single point] |  |
| CN(Cc1ccc(F)cc1)C(=O)c1cccc(OCc2ccccc2)c1 | inconclusive: 14.1 µM [activator, single point] |  |
| C=CCn1c(SCc2csc(C)n2)nc2sc3c(c2c1=O)CCC(C)C3 (configuration not stated) | inconclusive: 5.01 µM [activator, single point] |  |
| Cc1nc(-c2ccc(S(=O)(=O)NCc3ccccn3)s2)cs1 | inconclusive: 2.82 µM [activator, full curve, poor fit] |  |
| O=C(NC1=NCCS1)c1cccc2ccccc12 | inconclusive: 14.1 µM [activator, single point] |  |
| Cc1ccc(-n2nc(CN3CCOCC3)c(-c3ccccc3)c2N)c(C)c1 | inconclusive: 2.51 µM [activator, single point] |  |
| CC1CCN(c2cc(N)c(Cl)cc2[N+](=O)[O-])CC1 | inconclusive: 0.794 µM [activator, full curve, poor fit] |  |
| O=C(C1CCN(S(=O)(=O)c2ccccc2F)CC1)N1CCN(Cc2ccc3c(c2)OCO3)CC1 | inactive |  |

| Compound | Potency | activation |
| --- | --- | --- |
| O=C(Oc1ccc2c(-c3ccccc3)cc(=O)oc2c1)c1cccs1 | inactive |  |
| CCn1c(SCC(=O)NC2CC2)nnc1-c1csc(C)c1 | inconclusive: 7.94 µM [activator, partial curve] |  |
| COc1ccc(NC(=O)N2CCCC(c3nc(-c4ccc(OC)cc4)no3)C2)cc1 (configuration not stated) | inactive |  |
| COc1ccc(C(=O)Nc2cccc3nc(C)ccc23)cc1OC | inconclusive: 5.01 µM [activator, single point] |  |
| N#CNC(=Nc1cccc(C(F)(F)F)c1)SCc1ccc(C(=O)O)cc1 | inconclusive: 5.01 µM [activator, single point] |  |
| O=C(Nc1cccc(F)c1)c1cccc2c1C(=O)N(C1CCCCC1)C2 | inconclusive: 1 µM [activator, partial curve, poor fit] |  |
| O=C(Nc1ccc(N2CCOCC2)cc1)c1ccc(Cl)cc1N1CCCC1=O | inactive |  |
| Cc1ccc(N(Cc2cc3ccccc3[nH]c2=O)C(=O)c2cccs2)cc1 | inconclusive: 28.2 µM [activator, single point] |  |
| CN(C(=O)C1CC1)C1CCS(=O)(=O)C1 (configuration not stated) | inconclusive: 28.2 µM [activator, single point] |  |
| COc1cc(NC(=O)COc2cccc3c2OC(C)(C)C3)cc(OC)c1OC | inconclusive: 3.16 µM [activator, single point] |  |
| Cc1c(C(=O)N2CCCCC2)c(S(=O)(=O)NCc2ccc(F)cc2)c(C)n1C | inconclusive: 0.447 µM [activator, full curve, poor fit] |  |
| S=c1[nH]nc(-c2ccccn2)n1/N=C/c1ccco1 | inconclusive: 12.6 µM [activator, single point] |  |
| CSCC[C@H](NC(=O)N1CCn2c1nc1ccccc12)C(=O)NCC1CCCO1 (some centres not stated) | inconclusive: 3.16 µM [activator, single point] |  |
| CCOC(=O)c1c(NC(=O)CSc2ccccc2C(=O)O)sc(C)c1C | inactive |  |
| CCc1ccc(N(C(=O)c2ccco2)C(C(=O)NC2CCCC2)c2ccncc2)cc1 (configuration not stated) | inconclusive: 5.01 µM [activator, single point] |  |
| NNC(=S)Nc1cccc(-c2n[nH]c(=S)o2)c1 | inconclusive: 10 µM [activator, partial curve] |  |
| CCN(C(=O)COC(=O)CCCOc1ccc(Cl)cc1C)c1c(N)n(Cc2ccccc2)c(=O)[nH]c1=O | inconclusive: 0.501 µM [activator, full curve, poor fit] |  |
| CN1CCN(NC(=O)/C=C/c2ccc(Br)cc2)CC1 |  | inconclusive: 8.3% [activator] |
| Cc1ccc2nc(-c3cccc(Br)c3)cc(C(=O)NC3=NCCS3)c2c1 | inactive |  |
| COc1cc(NC(=O)C2CCCO2)c(OC)cc1Cl (configuration not stated) | inconclusive: 5.01 µM [activator, single point] |  |
| N#CCCN(C(=O)COC(=O)CCc1nc2ccccc2c(=O)[nH]1)c1ccccc1F | inconclusive: 2 µM [activator, single point] |  |
